This note sets out measurements from publication PMC5340530.

Sequences of proteins named here, by UniProt entry; tags and fusion partners are left off.
UniProt P61088: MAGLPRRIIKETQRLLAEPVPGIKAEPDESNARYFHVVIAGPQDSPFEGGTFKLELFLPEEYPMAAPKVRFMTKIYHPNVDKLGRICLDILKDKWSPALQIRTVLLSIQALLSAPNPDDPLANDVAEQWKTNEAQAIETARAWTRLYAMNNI
UniProt Q13489: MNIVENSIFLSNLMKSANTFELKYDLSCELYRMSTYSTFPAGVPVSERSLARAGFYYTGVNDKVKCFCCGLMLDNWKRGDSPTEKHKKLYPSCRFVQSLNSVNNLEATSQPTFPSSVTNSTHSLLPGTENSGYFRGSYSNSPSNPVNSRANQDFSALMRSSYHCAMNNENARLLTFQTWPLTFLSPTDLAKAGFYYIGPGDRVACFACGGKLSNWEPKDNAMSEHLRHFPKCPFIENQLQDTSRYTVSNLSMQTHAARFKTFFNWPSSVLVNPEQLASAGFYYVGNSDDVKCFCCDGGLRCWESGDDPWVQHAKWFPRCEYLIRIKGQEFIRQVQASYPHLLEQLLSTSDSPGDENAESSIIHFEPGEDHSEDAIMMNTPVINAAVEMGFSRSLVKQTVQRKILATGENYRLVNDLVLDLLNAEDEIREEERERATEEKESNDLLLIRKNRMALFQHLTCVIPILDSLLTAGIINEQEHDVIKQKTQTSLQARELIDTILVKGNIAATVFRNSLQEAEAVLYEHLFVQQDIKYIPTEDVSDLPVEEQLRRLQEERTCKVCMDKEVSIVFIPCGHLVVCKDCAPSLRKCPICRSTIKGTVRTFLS

Results are given in words; binding and its absence hold for the method and conditions named. For part of these data: In cells and extracts the contact can be indirect. Some binding calls cover weakened binding; strength is not graded here.

The target in assay [1] is YOD1, GAL4 AD or BD fusion (yeast two-hybrid) (UniProt Q5VVQ6). The experiment in a line: two-hybrid; GAL4 AD (pGAD-C1) and BD (pGBD-C1) fusions co-transformed in S. cerevisiae PJ69-7A; growth on -HIS-LEU-TRP plates.
Assay [2] deals with UBC13 (yeast two-hybrid fusion) (UniProt P61088). The description is as above.
Another assay addresses full length FLAG-YOD1 (UniProt Q5VVQ6). Put plainly: co-IP; tagged proteins co-transfected in HEK293 cells; IP with anti-HA, anti-FLAG or anti-MYC antibodies; Western blot.

For the substance “cIAP2 (AD fusion, yeast two-hybrid) (from UniProt Q13489 1-604) (enzyme)”, the figures for the binding result in assay [1] and in assay [2] were “binds weakly” and “binds”, respectively. For “p62 in HEK293 cells (construct not told) (from UniProt Q13501 1-440)”, the binding result in the assay with full length FLAG-YOD1 is listed as “no binding”.
